Assay results from article PMC8643467, “Appearance of peanut agglutinin in the blood circulation after peanut ingestion promotes endothelial secretion of metastasis-promoting cytokines” (Carcinogenesis, 2021).
No constants are given. Whether binding was seen depends on the method and setting. Binding seen in cells or lysates may run through a third protein. A yes stands for co-enrichment or nearness to the bait. Other partners may have been found. Where a sequence is shown, tags or fusion partners need not be part of it.

Amino acid sequences for entries named in this document (tags omitted). Residues count along the entry.
UniProt P43121, residues 24-646: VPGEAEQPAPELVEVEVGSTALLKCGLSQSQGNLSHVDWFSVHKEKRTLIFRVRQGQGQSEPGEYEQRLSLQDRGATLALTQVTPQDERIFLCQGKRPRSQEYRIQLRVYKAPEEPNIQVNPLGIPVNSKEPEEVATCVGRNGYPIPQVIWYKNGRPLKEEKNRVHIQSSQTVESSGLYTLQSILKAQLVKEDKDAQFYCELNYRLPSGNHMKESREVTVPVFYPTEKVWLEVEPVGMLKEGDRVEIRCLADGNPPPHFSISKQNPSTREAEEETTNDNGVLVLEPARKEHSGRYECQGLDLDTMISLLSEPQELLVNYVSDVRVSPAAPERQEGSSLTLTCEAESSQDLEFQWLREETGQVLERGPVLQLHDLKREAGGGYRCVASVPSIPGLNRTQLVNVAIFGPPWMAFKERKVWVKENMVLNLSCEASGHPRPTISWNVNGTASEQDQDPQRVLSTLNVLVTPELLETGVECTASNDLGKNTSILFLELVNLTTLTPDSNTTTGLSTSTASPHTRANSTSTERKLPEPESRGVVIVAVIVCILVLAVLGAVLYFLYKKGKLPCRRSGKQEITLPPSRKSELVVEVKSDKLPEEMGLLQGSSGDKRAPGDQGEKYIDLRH

Biological target: T1, Peanut agglutinin (PNA), agarose-conjugated (Arachis hypogaea) (UniProt P02872)
T1 sequence: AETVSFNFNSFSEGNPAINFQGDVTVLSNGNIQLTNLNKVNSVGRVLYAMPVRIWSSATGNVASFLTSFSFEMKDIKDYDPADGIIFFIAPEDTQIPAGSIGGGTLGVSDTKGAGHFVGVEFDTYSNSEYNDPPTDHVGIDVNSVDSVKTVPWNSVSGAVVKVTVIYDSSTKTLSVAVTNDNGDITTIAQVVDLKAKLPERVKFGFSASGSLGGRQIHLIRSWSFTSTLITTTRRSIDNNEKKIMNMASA
Experiment: affinity purification with mass spectrometry; cleared HUVEC lysate (PBS, 0.5% Triton X-100, 0.5% NP-40) applied to PNA-agarose, three washes with PBS, eluted with 0.2 M lactose/PBS, LC/MS-MS; only the target purified

MCAM (CD146), melanoma cell adhesion molecule (from UniProt P43121 24-646) (receptor)
binding: binds
